Measured values as given in BigSolDB 2.1.

Nc1ccc(S(N)(=O)=O)cc1
solubility (mole fraction)
Settings	278.15 K	283.15 K	288.15 K	293.15 K	298.15 K	303.15 K	308.15 K	313.15 K	318.15 K
in acetone	0.0832	0.0857	0.0884	0.0912	0.0942	0.0975	0.101	0.105	0.11
in benzene	0.00067	0.000815	0.00098	0.00117	0.00138	0.00161	0.00186	0.00215	0.00246
in ethanol	0.00547	0.00656	0.0079	0.00953	0.0115	0.0139	0.0169	0.0205	0.0249
in ethyl acetate	9e-06	1e-05	1.3e-05	1.5e-05	1.9e-05	2.6e-05	3.3e-05	4.4e-05	6e-05
in isopropanol	0.000202	0.000364	0.000589	0.00102	0.00175	0.00232	0.00323	0.0042	0.00585
in methanol	0.0112	0.0136	0.0165	0.0199	0.0238	0.0286	0.0343	0.0408	0.0486
in n-butanol	0.0012	0.00134	0.00148	0.00168	0.00196	0.00227	0.00258	0.00304	0.00357
in n-octanol	0.000314	0.000352	0.000399	0.000454	0.000522	0.000605	0.000705	0.000828	0.000973
in n-propanol	0.000982	0.00129	0.00175	0.0023	0.00299	0.00365	0.00444	0.00536	0.00615
in sec-butanol	9.6e-05	0.000252	0.000377	0.000721	0.00094	0.00132	0.00169	0.00215	0.00277
in toluene	4e-06	6e-06	8e-06	1.1e-05	1.4e-05	1.7e-05	2.1e-05	2.5e-05	3e-05
in water	0.000314	0.000379	0.000495	0.000636	0.000813	0.00106	0.00134	0.00172	0.00216
